# According to PubChem BioAssay AID588764 (Broad Institute, 2011):
# By UniProt entry, the sequences of proteins in these tests, tags left out.
# UniProt Q5AAJ8, whole entry, looked up: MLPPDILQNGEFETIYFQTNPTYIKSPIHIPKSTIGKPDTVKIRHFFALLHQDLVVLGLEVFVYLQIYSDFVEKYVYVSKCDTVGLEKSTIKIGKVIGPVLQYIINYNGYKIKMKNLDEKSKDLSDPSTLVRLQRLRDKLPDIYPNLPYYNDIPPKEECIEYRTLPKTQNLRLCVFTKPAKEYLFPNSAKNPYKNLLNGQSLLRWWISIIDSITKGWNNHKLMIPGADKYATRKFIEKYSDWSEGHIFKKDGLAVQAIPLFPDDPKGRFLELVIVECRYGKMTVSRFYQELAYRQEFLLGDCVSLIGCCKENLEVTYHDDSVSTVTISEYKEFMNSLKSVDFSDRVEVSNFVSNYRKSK
# Inconclusive means that the source gave no clear call. Such entries were picked first, then a sample of the others. Activity calls are given as the source filed them. No rule for the calls is given here.
# Target: Histone acetyltransferase RTT109 (Candida albicans (strain SC5314 / ATCC MYA-2876)) (UniProt Q5AAJ8)
# Experiment: C. albicans Rtt109 HAT inhibition curves – biochemical, cherry-picked hits, plate reader, dose response (AID 588764);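 also: 0% = neutral control wells and -100% = no enzyme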
# Conditions: Rtt109/Vps75 HAT activity; at 19.5 µM (top of the series)
row,SMILES,"activity change, negative = inhibition"
1,Cc1sc2c3ccsc3ccc2[n+]1C,inconclusive: -18.4%
2,CCCCCc1ccc(OCCCC[n+]2cccc(C)c2)c(CCCCC)c1,inconclusive: -13.2%
3,CC(NCC(O)COC1CCC(C(C)(C)C)CC1)c1ccccc1 (centres undefined),inconclusive: -10.3%
4,CCN1/C(=C/c2ccc3cc(C)ccc3[n+]2CC)Sc2cc(C)c(C)cc21,inconclusive: -14.7%
5,CCn1c(SCC(=O)Nc2ccc(Br)cc2)nc2sc3c(c2c1=O)CCN(C)C3,inactive: -16.2%
6,Cc1cc(N)c2cc(NC(=O)/C=C/c3ccccc3Cl)ccc2n1,inconclusive: -16.2%
7,CCSc1ccccc1C(=O)Nc1ccc([N+](=O)[O-])cc1OC,inconclusive: -21.8%
8,CCn1c(SCC(=O)Nc2cc(OC)c(OC)c(OC)c2)nnc1-c1cccs1,inactive: -5.88%
9,COc1cccc2sc(N(CCCN(C)C)C(=O)CCS(=O)(=O)c3ccccc3)nc12,inconclusive: -56.5%
10,CCCCCCCCCCOC(=O)Cn1c(COc2ccc(OC)cc2)[n+](C)c2ccccc21,inconclusive: -27.9%
11,CCCCCC[N+](C)(C)CC/C=C1/c2ccccc2Sc2ccc(Cl)cc21,inconclusive: -9.56%
12,O=C(CCN1CCc2ccccc2CC1)c1ccc2c(c1)OCCO2,inconclusive: -51.9%
13,CCOC(=O)c1c(N2C(=O)CC(Sc3ccccc3C(=O)O)C2=O)sc2c1CCCC2 (centres undefined),inconclusive: -17.9%
14,COc1ccc(CC(NC(C)=O)C(=O)NC2CCN(c3nc(C)cc(C)c3C#N)CC2)cc1 (centres undefined),inactive: 0%

# Single entries from the entries so far:
# activity change, negative = inhibition, Cc1cc(N)c2cc(NC(=O)/C=C/c3ccccc3Cl)ccc2n1 reads inconclusive: -16.2%
# activity change, negative = inhibition, CCCCCc1ccc(OCCCC[n+]2cccc(C)c2)c(CCCCC)c1 reads inconclusive: -13.2%
